Test results taken from PMC5887109, “Unravelling the Molecular Determinants of Bee Sensitivity to Neonicotinoid Insecticides” (Current Biology, 2018).

System: Bombus terrestris
Test: Acute oral insecticide bioassay of bumble bees, with or without PBO
Details: slope of dose response
Protocol: Acute contact insecticide assays were performed on female A. mellifera following standard methods OECD 2013 [30]. Bioassays of B. terrestris were based on the OECD guidelines developed for honeybees but with bees assayed in individual Nicot cages. Bees were starved of sucrose solution for up to 2 hr to encourage feeding during the experiment. […] Controls were fed a solution of sucrose containing a concentration of acetone matching that of the highest treatment concentration. After 4-6 hr the syringes were assessed to see if bees had consumed the insecticide-sucrose solution. Those that had not consumed all of the solution were excluded from the experiment. Mortality was assessed 48 hr after feeding and lethal concentrations (LC50 values) were calculated by probit analysis using Genstat version 16 (VSN International). For synergist bioassays, B. terrestris or A. mellifera workers were first treated with 20 μg of piperonyl butoxide or 1 μg of aminobenzotriazole applied to the dorsal thorax. Synergist bioassays included an additional control group treated only with the synergist. 1 hr after synergist application, bees were then treated with the appropriate insecticide dosage as above.

O=[N+]([O-])NC1=NCCN1Cc1ccc(Cl)nc1 [imidacloprid]
Slope (no synergist): 1.5
Slope (synergist PBO): 1.9

N#C/N=C1\SCCN1Cc1ccc(Cl)nc1 [thiacloprid]
Slope (no synergist): 1.8
Slope (synergist PBO): 1.4
